These are yes or no findings as the source states them, for the method shown. Binding seen in cells or lysates may run through a third protein. Binding calls can cover weak binding; strength is not graded here.
B1: Nup107 (protein, UniProt P57740-1 1-925)
chain: MDRSGFGEISSPVIREAEVTRTARKQSAQKRVLLQASQDENFGNTTPRNQVIPRTPSSFRQPFTPTSRSLLRQPDISCILGTGGKSPRLTQSSGFFGNLSMVTNLDDSNWAAAFSSQRSGLFTNTEPHSITEDVTISAVMLREDDPGEAASMSMFSDFLQSFLKHSSSTVFDLVEEYENICGSQVNILSKIVSRATPGLQKFSKTASMLWLLQQEMVTWRLLASLYRDRIQSALEEESVFAVTAVNASEKTVVEALFQRDSLVRQSQLVVDWLESIAKDEIGEFSDNIEFYAKSVYWENTLHTLKQRQLTSYVGSVRPLVTELDPDAPIRQKMPLDDLDREDEVRLLKYLFTLIRAGMTEEAQRLCKRCGQAWRAATLEGWKLYHDPNVNGGTELEPVEGNPYRRIWKISCWRMAEDELFNRYERAIYAALSGNLKQLLPVCDTWEDTVWAYFRVMVDSLVEQEIQTSVATLDETEELPREYLGANWTLEKVFEELQATDKKRVLEENQEHYHIVQKFLILGDIDGLMDEFSKWLSKSRNNLPGHLLRFMTHLILFFRTLGLQTKEEVSIEVLKTYIQLLIREKHTNLIAFYTCHLPQDLAVAQYALFLESVTEFEQRHHCLELAKEADLDVATITKTVVENIRKKDNGEFSHHDLAPALDTGTTEEDRLKIDVIDWLVFDPAQRAEALKQGNAIMRKFLASKKHEAAKEVFVKIPQDSIAEIYNQCEEQGMESPLPAEDDNAIREHLCIRAYLEAHETFNEWFKHMNSVPQKPALIPQPTFTEKVAHEHKEKKYEMDFGIWKGHLDALTADVKEKMYNVLLFVDGGWMVDVREDAKEDHERTHQMVLLRKLCLPMLCFLLHTILHSTGQYQECLQLADMVSSERHKLYLVFSKEELRKLLQKLRESSLMLLDQGLDPLGYEIQL
B2: Nup155 (protein, UniProt O75694-1 1-1391)
chain: MPSSLLGAAMPASTSAAALQEALENAGRLIDRQLQEDRMYPDLSELLMVSAPNNPTVSGMSDMDYPLQGPGLLSVPNLPEISSIRRVPLPPELVEQFGHMQCNCMMGVFPPISRAWLTIDSDIFMWNYEDGGDLAYFDGLSETILAVGLVKPKAGIFQPHVRHLLVLATPVDIVILGLSYANLQTGSGVLNDSLSGGMQLLPDPLYSLPTDNTYLLTITSTDNGRIFLAGKDGCLYEVAYQAEAGWFSQRCRKINHSKSSLSFLVPSLLQFTFSEDDPILQIAIDNSRNILYTRSEKGVIQVYDLGQDGQGMSRVASVSQNAIVSAAGNIARTIDRSVFKPIVQIAVIENSESLDCQLLAVTHAGVRLYFSTCPFRQPLARPNTLTLVHVRLPPGFSASSTVEKPSKVHRALYSKGILLMAASENEDNDILWCVNHDTFPFQKPMMETQMTAGVDGHSWALSAIDELKVDKIITPLNKDHIPITDSPVVVQQHMLPPKKFVLLSAQGSLMFHKLRPVDQLRHLLVSNVGGDGEEIERFFKLHQEDQACATCLILACSTAACDREVSAWATRAFFRYGGEAQMRFPTTLPPPSNVGPILGSPVYSSSPVPSGSPYPNPSFLGTPSHGIQPPAMSTPVCALGNPATQATNMSCVTGPEIVYSGKHNGICIYFSRIMGNIWDASLVVERIFKSGNREITAIESSVPCQLLESVLQELKGLQEFLDRNSQFAGGPLGNPNTTAKVQQRLIGFMRPENGNPQQMQQELQRKFHEAQLSEKISLQAIQQLVRKSYQALALWKLLCEHQFTIIVAELQKELQEQLKITTFKDLVIRDKELTGALIASLINCYIRDNAAVDGISLHLQDICPLLYSTDDAICSKANELLQRSRQVQNKTEKERMLRESLKEYQKISNQVDLSNVCAQYRQVRFYEGVVELSLTAAEKKDPQGLGLHFYKHGEPEEDIVGLQAFQERLNSYKCITDTLQELVNQSKAAPQSPSVPKKPGPPVLSSDPNMLSNEEAGHHFEQMLKLSQRSKDELFSIALYNWLIQVDLADKLLQVASPFLEPHLVRMAKVDQNRVRYMDLLWRYYEKNRSFSNAARVLSRLADMHSTEISLQQRLEYIARAILSAKSSTAISSIAADGEFLHELEEKMEVARIQLQIQETLQRQYSHHSSVQDAVSQLDSELMDITKLYGEFADPFKLAECKLAIIHCAGYSDPILVQTLWQDIIEKELSDSVTLSSSDRMHALSLKIVLLGKIYAGTPRFFPLDFIVQFLEQQVCTLNWDVGFVIQTMNEIGVPLPRLLEVYDQLFKSRDPFWNRMKKPLHLLDCIHVLLIRYVENPSQVLNCERRRFTNLCLDAVCGYLVELQSMSSSVAVQAITGNFKSLQAKLERLH

Target: V5-tagged HCV core (strain H77, amino-acid residues 1-191) (Hepatitis C virus, strain H77)
Assay: co-IP; anti-V5 immunoprecipitation from HEK293T cells transfected with V5-tagged HCV proteins for 48 hrs; western blot for endogenous Nups and Kaps; some samples treated with Kap β3/IPO5-NLS peptides or control penetratin peptides, or transfected with cNLS-GFP, 12 hrs after transfection

Row | Binder | binding
1 | B1 | binds
2 | B2 | no binding
